Test results taken from paper doi:10.1101/2020.01.19.911891.
Results are given in words; binding and its absence hold for the method and conditions named. Some binding calls cover weakened binding; strength is not graded here. Sequences can lack the tags named with a protein.

The chains behind the UniProt entries cited, without tags or fusion partners.
UniProt Q9UK41, whole entry: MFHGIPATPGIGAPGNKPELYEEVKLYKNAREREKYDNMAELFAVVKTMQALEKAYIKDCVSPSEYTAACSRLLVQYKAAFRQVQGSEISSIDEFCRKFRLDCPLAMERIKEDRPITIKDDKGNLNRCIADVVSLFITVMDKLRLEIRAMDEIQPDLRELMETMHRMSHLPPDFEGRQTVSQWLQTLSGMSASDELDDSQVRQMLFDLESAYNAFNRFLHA

Biological target: T1, AKTIP fused to the Gal4 DNA-binding domain (human) (UniProt Q9H8T0)
T1 sequence: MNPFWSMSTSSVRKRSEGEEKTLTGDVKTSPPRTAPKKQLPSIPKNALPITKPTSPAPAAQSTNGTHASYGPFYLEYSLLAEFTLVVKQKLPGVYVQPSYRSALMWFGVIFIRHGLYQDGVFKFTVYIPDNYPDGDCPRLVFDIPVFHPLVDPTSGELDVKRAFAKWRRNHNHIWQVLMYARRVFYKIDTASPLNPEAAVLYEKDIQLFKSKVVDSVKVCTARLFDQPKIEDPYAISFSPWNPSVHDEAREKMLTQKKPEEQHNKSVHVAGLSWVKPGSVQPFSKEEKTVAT
Test: two-hybrid

- binding: binds
Substance: VPS28 fused to the VP16 activation domain (from UniProt Q9UK41 1-221)
